Measured data: PubChem BioAssay AID1259254 (NCATS, 2017)
The whole screen tested about 59,000 reagents; this is a random part of them. In the full data, about 1,550 (2.6%) are marked active. 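G2 share is only a proxy for re-replication; each gene was hit by three separate siRNAs, and active genes were retested.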 The numbers tell different reagents against one gene apart. Not all columns of the deposit are shown. Not stated in the record: the amount of reagent.

- Screen: 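Genome-wide screen for genes that prevent DNA re-replication in cancer cells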 (primary screen)
- System: human HCT116 colorectal cancer cells
- Reagent: single siRNA against human genes
- Timing: 3 days
- Measurement: 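Imaged Hoechst DNA stain sorts each cell into a cycle phase by DNA amount; per plate, G2 fraction set to 0% for non-targeting and 100% for GMNN siRNA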
- Scale: G2 robust z-score: higher = more G2 cells, more excess DNA replication
- Call rule: 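Active siRNAs have a G2 robust z of 5 or more median absolute deviations over the median, which in these data means about 38% or higher of GMNN control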

With knock-down of IGSF9 (immunoglobulin superfamily member 9) #1 the results were G2 robust z-score 1.27; inactive.
Depletion of IGSF9 (immunoglobulin superfamily member 9) #2 resulted in: G2 robust z-score -0.133; inactive.
Knock-down of IGSF9 (immunoglobulin superfamily member 9) #3 gave: G2 robust z-score 1.33; inactive.
After knock-down of NPRL2 (NPR2 like, GATOR1 complex subunit) #1, the record shows G2 robust z-score 4.09; inactive.
For NPRL2 (NPR2 like, GATOR1 complex subunit) #2, the values are G2 robust z-score 1.5; inactive.
For NPRL2 (NPR2 like, GATOR1 complex subunit) #3, the values are G2 robust z-score 2.1; inactive.
Knock-down of PRR7 (proline rich 7, synaptic) #1 resulted in: G2 robust z-score 0.84; inactive.
Knock-down of PRR7 (proline rich 7, synaptic) #2 resulted in: G2 robust z-score 2.11; inactive.
PRR7 (proline rich 7, synaptic) #3 scored G2 robust z-score -0.771; inactive.
Silencing of CCL2 (C-C motif chemokine ligand 2) #1 gave: G2 robust z-score 1.13; inactive.
Depletion of CCL2 (C-C motif chemokine ligand 2) #2 resulted in: G2 robust z-score 1.96; inactive.
After knock-down of CCL2 (C-C motif chemokine ligand 2) #3, the record shows G2 robust z-score 2.28; inactive.
With knock-down of EZHIP (EZH inhibitory protein) #1, the record shows G2 robust z-score 0.0171; inactive.
Knock-down of EZHIP (EZH inhibitory protein) #2 came out at: G2 robust z-score 1.05; inactive.
EZHIP (EZH inhibitory protein) #3 scored G2 robust z-score -0.669; inactive.
After knock-down of REXO2 (RNA exonuclease 2) #1 the results were G2 robust z-score -0.841; inactive.
REXO2 (RNA exonuclease 2) #2 gave G2 robust z-score -1.19; inactive.
Silencing of REXO2 (RNA exonuclease 2) #3 came out at: G2 robust z-score 0.278; inactive.
After knock-down of GSTO2 (glutathione S-transferase omega 2) #1, the screen gave G2 robust z-score 0.266; inactive.
Knock-down of GSTO2 (glutathione S-transferase omega 2) #2 gave: G2 robust z-score -0.238; inactive.
GSTO2 (glutathione S-transferase omega 2) #3 gave G2 robust z-score 11; active.
Knock-down of DNAL4 (dynein axonemal light chain 4) #1 resulted in: G2 robust z-score -0.256; inactive.
Knock-down of DNAL4 (dynein axonemal light chain 4) #2 gave: G2 robust z-score 7.13; active.
DNAL4 (dynein axonemal light chain 4) #3 showed G2 robust z-score 2.12; inactive.

Laid out differently: 2 of the entries above.
REXO2 (RNA exonuclease 2) #2
- G2 robust z-score: -1.19
- Call: inactive

REXO2 (RNA exonuclease 2) #3
- G2 robust z-score: 0.278
- Call: inactive
